{"source": "patent US20260216099A1", "about": "“BROMOQUINONE AS A TREATMENT FOR OBESITY AND CANCER” (priority 2023, published 2026)", "origin": "cited, not measured here", "settings": "cited from earlier work", "note": "For at least one compound, name, drawing or mass did not settle the structure."}
{"smiles": "COC1=C(OC)C(=O)C(CC=C(C)CCC=C(C)CCC=C(C)CCC=C(C)CCC=C(C)CCC=C(C)CCC=C(C)CCC=C(C)CCC=C(C)CCC=C(C)C)=C(C)C1=O", "note": "[coenzyme Q10, 2,3-dimethoxy-5-(isoprenyl)10-6-methyl-1,4-benzoquinone]", "values": [{"measurement": "midpoint redox potential", "value": 110, "unit": "mV"}]}
